Data as given in patent US10113968B2, “Specific detection and quantification of cardiolipin and isolated mitochondria by positively charged AIE fluorogens and method of manufacturing thereof” (priority 2013, dated 2018).

Assay: Fluorescence response of dye to CL-containing (TOCL/DOPC) and CL-free (DOPC) LUVs
Settings: [dye]=10 μM, λex=350 nm
Procedure: CL-containing vesicles are composed of TOCL/DOPC (1:1 molar ratio), and CL-free vesicles are composed of pure DOPC, respectively, in a 25 mM HEPES buffer at pH 7.4. [dye]=10 μM; [lipid]total=22 μM; λex=350 nm.
FIG. 3A is a plot of the fluorescence enhancement (I/I0−1) of TTAPE-Me at 480 nm with CL-containing and CL-free vesicles.
FIG. 3B is the linear region of the I/I0−1 value versus CL concentration. [dye]=10 μM; λex=350 nm.
FIG. 4B is a plot of the fluorescence enhancement at 480 nm versus CL content. [dye]=10 μM; [lipid]total=22 μM; λex=350 nm.
CL-containing and CL-free vesicles are composed of TOCL/DOPC (1:1 molar ratio) and pure DOPC, respectively, in a 25 mM HEPES buffer at pH 7.4. [dye]=10 μM; [lipid]total=22 μM; λex=350 nm.
The fluorescence enhancement (I/I0−1) of TTAPE-Me at 480 nm is in a linear fashion in the CL concentration of 0-10 μM (FIG. 3B), which lies in the physiological range of CL in mitochondrial membrane. Linear detection of CL can also be obtained with the varying content of TOCL (2-50% TOCL) in the vesicles (FIG. 4A-4B). The results imply that flexible TTAPE-Me to CL ratio is allowed in the detection and quantification of CL. In contrast, conventional NAO requires strict 2:1 ratio of NAO/CL for quantitative measurement. Moreover, the detection of CL can be done immediately upon mixing the vesicles with the probe without any extra treatment. […]

C[N+](C)(C)CCOc1ccc(C(=C(c2ccc(OCC[N+](C)(C)C)cc2)c2ccc(OCC[N+](C)(C)C)cc2)c2ccc(OCC[N+](C)(C)C)cc2)cc1.[Br-].[Br-].[Br-].[Br-] [TTAPE-Me, 1,1,2,2-tetrakis[4-(2-trimethylammonio-ethoxy)phenyl]ethene tetrabromide]
TOCL content of vesicles giving linear detection of CL ([lipid]total=22 μM): 2-50 % TOCL
CL concentration range with linear fluorescence enhancement (I/I0−1) at 480 nm: 0 to 10 µM
